The supplement of paper PMC7238544
Where a name gives a salt, the structure may show the parent alone. ± gives the standard deviation of the averaged measurements. The list shows a part of the results. The data scatter; read single values as rough.

How the values were obtained:
[1] = test system: hAMSC donor 1; experiment: Hoechst total cell count ratio vs vehicle control; higher = more cells (less toxicity)
[2] = test system: hAMSC donor 2; experiment: as above
[3] = test system: hAMSC donor 1; experiment: transgenic luciferase activity (RLU/mg protein) fold change vs vehicle control (ratio); higher = more transgene expression
[4] = test system: hAMSC donor 2; experiment: as above
[5] = test system: hAMSC donor 1; experiment: transfection efficiency (EGFP+ cells / Hoechst count) fold change vs vehicle control (ratio); hAMSC are human adipose-derived mesenchymal stem cells given an EGFP-luciferase plasmid by lipofection; higher = enhanced transfection
[6] = test system: hAMSC donor 2; experiment: as above
[7] = priming compound concentration 0.2 µM
[8] = priming compound concentration 1.7 µM
[9] = priming compound concentration 13 µM

Row | Structure (SMILES) | Hoechst total cell count ratio [1, 7] | Hoechst total cell count ratio [1, 8] | Hoechst total cell count ratio [1, 9] | Hoechst total cell count ratio [2, 7] | Hoechst total cell count ratio [2, 8] | Hoechst total cell count ratio [2, 9] | transgenic luciferase activity [3, 8] | transgenic luciferase activity [3, 9] | transgenic luciferase activity [4, 8] | transgenic luciferase activity [4, 9] | transfection efficiency [5, 7] | transfection efficiency [5, 8] | transfection efficiency [5, 9] | transfection efficiency [6, 7] | transfection efficiency [6, 8] | transfection efficiency [6, 9] | transgenic luciferase activity [3, 7] | transgenic luciferase activity [4, 7]
1 | CC(C)[N+]1(C)[C@@H]2CC[C@H]1C[C@@H](OC(=O)C(CO)c1ccccc1)C2 (some centres not stated) [Ipratropium bromide] | 1.5 ± 0.13 | 1.15 ± 0.24 | 1 ± 0.037 | 0.828 ± 0.12 | 1.09 ± 0.092 | 1.36 ± 0.24 | 0.345 ± 0.15 | 0.804 ± 0.13 | 0.554 ± 0.037 | 0.345 ± 0.11 | 1.07 ± 0.32 | 0.975 ± 0.19 | 1.72 ± 0.14 | 1.4 ± 0.23 | 1.14 ± 0.039 | 1.04 ± 0.073 | – | –
2 | C[C@](N)(Cc1ccc(O)c(O)c1)C(=O)O [Methyldopa] | 1.16 ± 0.14 | 1.19 ± 0.068 | 1.16 ± 0.37 | 0.987 ± 0.12 | 0.621 ± 0.14 | 1.01 ± 0.26 | 0.71 ± 0.12 | – | 0.402 ± 0.053 | 1.6 ± 0.45 | 1.21 ± 0.15 | 1.05 ± 0.14 | 0.969 ± 0.043 | 0.955 ± 0.27 | 1.15 ± 0.085 | 1.38 ± 0.14 | 1.35 ± 0.54 | –
3 | Brc1c(NC2=NCCN2)ccc2nccnc12 [Brimonidine] | 1.02 ± 0.24 | 1.2 ± 0.1 | 1.24 ± 0.2 | 1.22 ± 0.016 | 0.8 ± 0.11 | 0.839 ± 0.22 | 1.89 ± 0.73 | – | 0.657 ± 0.061 | 0.276 ± 0.13 | 1.3 ± 0.39 | 1.29 ± 0.32 | 1.15 ± 0.14 | 0.834 ± 0.012 | 1.38 ± 0.13 | 1.42 ± 0.16 | 0.892 ± 0.3 | –
4 | C[C@]12C=CC(=O)C=C1CC[C@@H]1[C@@H]2C(=O)C[C@@]2(C)[C@H]1CC[C@]2(O)C(=O)CO [Prednisone] | 1.2 ± 0.14 | 0.786 ± 0.029 | 0.967 ± 0.091 | 0.853 ± 0.23 | 0.743 ± 0.21 | 1.03 ± 0.27 | 0.608 ± 0.36 | 0.627 ± 0.035 | 0.725 ± 0.092 | 0.422 ± 0.1 | 1.57 ± 0.19 | 1.39 ± 0.73 | 1.8 ± 0.64 | 1.08 ± 0.12 | 1.04 ± 0.15 | 1.88 ± 0.033 | – | –
5 | c1ccc(CC2=NCCN2)cc1 [Priscoline hydrochloride] | 1.03 ± 0.062 | 1.06 ± 0.094 | 1.25 ± 0.1 | 1.12 ± 0.085 | 1.15 ± 0.15 | 0.963 ± 0.04 | – | 0.665 ± 0.52 | 0.915 ± 0.035 | 0.867 ± 0.094 | 1.11 ± 0.28 | 1.37 ± 0.31 | 0.721 ± 0.22 | 1.07 ± 0.13 | 1.11 ± 0.062 | 0.879 ± 0.16 | – | 0.938 ± 0.13
6 | COC(=O)C[C@](O)(CCCC(C)(C)O)C(=O)O[C@@H]1C(OC)=C[C@]23CCCN2CCc2cc4c(cc2[C@H]13)OCO4 [Homoharringtonine] | 0.866 ± 0.027 | 0.341 ± 0.085 | 0.405 ± 0.19 | 0.647 ± 0.028 | 0.388 ± 0.085 | 0.126 ± 0.029 | – | 0.824 ± 1.3 | 0.595 ± 0.16 | – | 1.31 ± 0.18 | 0.99 ± 0.16 | 0.452 ± 0.1 | 1.42 ± 0.31 | 0.993 ± 0.36 | 0.32 ± 0.16 | 1.6 ± 0.91 | 1.86 ± 0.2
7 | CC[C@]1(O)C[C@H]2CN(CCc3c([nH]c4ccccc34)[C@@](C(=O)OC)(c3cc4c(cc3OC)N(C=O)[C@H]3[C@@](O)(C(=O)OC)[C@H](OC(C)=O)[C@]5(CC)C=CCN6CC[C@]43[C@@H]65)C2)C1 [Vincristine sulfate] | 0.488 ± 0.066 | 0.537 ± 0.078 | 0.541 ± 0.036 | 0.732 ± 0.087 | 0.863 ± 0.14 | 1.84 ± 0.17 | 2.42 ± 0.65 | – | 0.59 ± 0.12 | 0.422 ± 0.19 | 2.01 ± 0.55 | 0.976 ± 0.49 | 0.795 ± 0.33 | 0.877 ± 0.3 | 0.777 ± 0.21 | 0.709 ± 0.14 | – | 0.347 ± 0.15
